Compound in this test: CC1Cc2ccccc2N1C(=O)C1CCCN(C1)C(=O)CCl (mixture of isomers) [TRIM25 ligand 11 (diastereomer mixture)]
Nature of the test: probe-labelled cysteine peptide fold change vs DMSO (competition) (log2 fold change); higher = less target engagement (more negative = stronger competition). To be noted: THP-1, incubation time: 4 h.

Experimental findings from the supplement of paper PMC12067093, “Discovery and optimisation of a covalent ligand for TRIM25 and its application to targeted protein ubiquitination” (Chemical Science, 2025) are described below.

Some of the results follow.
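Further: competitive chemoproteomic profiling in live THP-1 cells with an iodoacetamide desthiobiotin (IA-DTB) probe, comparing probe-labelled peptide intensities in compound-treated cells against DMSO-treated controls.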

Consider “PTER_Q96BW5_38+43_TLTHEHLAMTFDCCYCPPPPCQEAISK (UniProt Q96BW5)”, for which the “probe-labelled cysteine peptide fold change” value by setting is: (10 µM) 0.0301; (50 µM) -0.329.
Consider “PTPRS_Q13332_107_DENVYECVAQNSVGEITVHAK (UniProt Q13332)”, for which the “probe-labelled cysteine peptide fold change” value is, setting by setting: (10 µM) 0.541; (50 µM) 0.334.
Take “PSME4_Q14997_718_QGYTLSCNLLHHLLR (UniProt Q14997)”: the “probe-labelled cysteine peptide fold change” value reads like this: (10 µM) 0.0481; (50 µM) 0.266.
In the case of “PUM1_Q14671_234_SESGGLGVSMVEYVLSSSPGDSCLRK (UniProt Q14671)”, the “probe-labelled cysteine peptide fold change” value runs as follows: (10 µM) -0.338; (50 µM) -0.386.
Regarding “PSMD1_Q99460_378_NSVCHTATVIANSFMHCGTTSDQFLR (UniProt Q99460)”, the “probe-labelled cysteine peptide fold change” value (10 µM) amounted to 0.059 and the “probe-labelled cysteine peptide fold change” value (50 µM) amounted to 0.0532.
In the same order, the values of “PTBP3_O95758_500_NLFIEAGCSVK (UniProt O95758)” are 0.0521 and -0.000554.
Turning to “PTK2B_Q14289_89_LAECYGLR (UniProt Q14289)”, the “probe-labelled cysteine peptide fold change” value runs as follows: (10 µM) -0.0348; (50 µM) 0.0529.
For “PSMD1_Q99460_898_VLTMPETCR (UniProt Q99460)”, the “probe-labelled cysteine peptide fold change” value (10 µM) is -0.126 and the “probe-labelled cysteine peptide fold change” value (50 µM) turned out to be 0.0341.
In the same order, the values of “PSMC1_P62191_148_DLLEPGCSVLLNHK (UniProt P62191)” are 0.0214 and 0.034.
“PTK2B_Q14289_310_CLPLEEGQAVLQLGIEGAPQALSIK (UniProt Q14289)”: the “probe-labelled cysteine peptide fold change” value was -0.0303 (10 µM) and 0.107 (50 µM).
Turning to “PTGFRN_Q9P2B2_655_CMVTAWSPVR (UniProt Q9P2B2)”, the “probe-labelled cysteine peptide fold change” value was 0.0593 (10 µM) and 0.183 (50 µM).
As for “PSMA4_P25789_74_LNEDMACSVAGITSDANVLTNELR (UniProt P25789)”, the “probe-labelled cysteine peptide fold change” value reads like this: (10 µM) 0.31; (50 µM) 0.0247.
The like results for “PSMG2_Q969U7_168_CIPEIDDSEFCIR (UniProt Q969U7)” were, in that order, -0.123 and 0.0815.
In the case of “PSMD6_Q15008_266_QYLFSLYECR (UniProt Q15008)”, the “probe-labelled cysteine peptide fold change” value reads like this: (10 µM) 0.307; (50 µM) 0.161.
Regarding “PSMC1_P62191_58_LPLVTPHTQCR (UniProt P62191)”, the “probe-labelled cysteine peptide fold change” value (10 µM) was determined as 0.0658 and the “probe-labelled cysteine peptide fold change” value (50 µM) amounted to 0.105.
For the target “PSMA2_P25787_213_ESFEGQMTEDNIEVGICNEAGFR (UniProt P25787)”, the “probe-labelled cysteine peptide fold change” value (10 µM) was determined as 0.0692 and the “probe-labelled cysteine peptide fold change” value (50 µM) is -0.0795.
The like results for “PTRH1_Q86Y79_72_HCAADLALAPLGDAQLVLLRPR (UniProt Q86Y79)” were, in that order, 0.169 and -0.126.
Consider “PTPN1_P18031_226_SGTFCLADTCLLLMDKR (UniProt P18031)”, for which the “probe-labelled cysteine peptide fold change” value is, setting by setting: (10 µM) 0.0249; (50 µM) -0.175.
In the same order, the values of “PSMD13_Q9UNM6_114_SSDEAVILCK (UniProt Q9UNM6)” are 0.115 and -0.055.
In the same order, the values of “PTPN11_Q06124_259_QGFWEEFETLQQQECK (UniProt Q06124)” are -0.0354 and 0.00349.
Turning to “PTK2B_Q14289_744_LQFQVPEGLCASSPTLTSPMEYPSPVNSLHTPPLHR (UniProt Q14289)”, the “probe-labelled cysteine peptide fold change” value runs as follows: (10 µM) 0.232; (50 µM) -0.331.
In the case of “PTPN7_P35236_291_LVAEVEESPETAAHPGPIVVHCSAGIGR (UniProt P35236)”, the “probe-labelled cysteine peptide fold change” value is, setting by setting: (10 µM) 0.0965; (50 µM) -0.335.
Take “PTK2B_Q14289_44_VCFYSNSFNPGK (UniProt Q14289)”: the “probe-labelled cysteine peptide fold change” value was -0.0107 (10 µM) and 0.149 (50 µM).
Take “PSME3_P61289_92_LDECEEAFQGTK (UniProt P61289)”: the “probe-labelled cysteine peptide fold change” value (10 µM) was -0.11 and the “probe-labelled cysteine peptide fold change” value (50 µM) is -0.18.
“PSMC3_P17980_387+396_CTDDFNGAQCK (UniProt P17980)”: the “probe-labelled cysteine peptide fold change” value was -0.23 (10 µM) and 0.0805 (50 µM).
The like results for “PSMA6_P60900_78_ITENIGCVMTGMTADSR (UniProt P60900)” were, in that order, -0.225 and -0.119.
The like results for “PSMB2_P49721_91_NLADCLR (UniProt P49721)” were, in that order, -0.154 and -0.117.
As to “PSMB9_P28065_171_QPFAIGGSGSTFIYGYVDAAYKPGMSPEECRR (UniProt P28065)”, the “probe-labelled cysteine peptide fold change” value was 0.104 (10 µM) and 0.0454 (50 µM).
“PTPN23_Q9H3S7_1466_HGVPPPCKPLASASISQK (UniProt Q9H3S7)”: the “probe-labelled cysteine peptide fold change” value runs as follows: (10 µM) -0.139; (50 µM) -0.419.
For the target “PSMB8_P28062_174_GMGLSMGSMICGWDK (UniProt P28062)”, the “probe-labelled cysteine peptide fold change” value runs as follows: (10 µM) -0.00669; (50 µM) -0.0214.
In the case of “PSMA7_O14818_70_KICALDDNVCMAFAGLTADAR (UniProt O14818)”, the “probe-labelled cysteine peptide fold change” value (10 µM) was -0.135 and the “probe-labelled cysteine peptide fold change” value (50 µM) came to 0.349.
Consider “PSMC2_P35998_270_KACLIFFDEIDAIGGAR (UniProt P35998)”, for which the “probe-labelled cysteine peptide fold change” value by setting is: (10 µM) -0.456; (50 µM) -0.35.
“PTPN12_Q05209_343_SCLVEGDAK (UniProt Q05209)”: the “probe-labelled cysteine peptide fold change” value by setting is: (10 µM) 0.155; (50 µM) -0.0495.
For the target “PTPN1_P18031_226_SGTFCLADTCLLLMDK (UniProt P18031)”, the “probe-labelled cysteine peptide fold change” value (10 µM) was -0.0076 and the “probe-labelled cysteine peptide fold change” value (50 µM) was -0.261.
As for “PUF60_Q9UHX1_487_NMVDPKDIDDDLEGEVTEECGK (UniProt Q9UHX1)”, the “probe-labelled cysteine peptide fold change” value was -0.2 (10 µM) and -0.375 (50 µM).
In the same order, the values of “PTPRF_P10586_1891_TQRPAMVQTEDQYQLCYR (UniProt P10586)” are 0.0146 and -0.112.
